Results are given in words; binding and its absence hold for the method and conditions named. In cells and extracts the contact can be indirect. Some entries that bind do so weakly or less than the wild type.
Biological target: RAD51 (endogenous, HeLa nuclear extracts) (human (endogenous in HeLa)) (UniProt Q06609)
Assay: co-IP

Amino acid sequences for entries named in this document (tags omitted).
UniProt Q06609: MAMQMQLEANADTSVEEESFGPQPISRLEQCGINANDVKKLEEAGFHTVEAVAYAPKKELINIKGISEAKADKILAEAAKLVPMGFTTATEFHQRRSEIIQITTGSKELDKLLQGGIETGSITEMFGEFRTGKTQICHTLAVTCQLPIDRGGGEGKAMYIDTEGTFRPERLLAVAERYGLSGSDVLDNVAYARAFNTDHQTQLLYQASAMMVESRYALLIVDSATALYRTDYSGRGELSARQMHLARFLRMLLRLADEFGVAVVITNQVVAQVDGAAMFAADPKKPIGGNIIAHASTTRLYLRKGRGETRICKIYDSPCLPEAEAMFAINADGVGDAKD

binding: binds
B1: Sc35 (Nuclear Speckles component, endogenous, HeLa nuclear extracts) (protein, UniProt Q01130 1-221)
chain: MSYGRPPPDVEGMTSLKVDNLTYRTSPDTLRRVFEKYGRVGDVYIPRDRYTKESRGFAFVRFHDKRDAEDAMDAMDGAVLDGRELRVQMARYGRPPDSHHSRRGPPPRRYGGGGYGRRSRSPRRRRRSRSRSRSRSRSRSRSRYSRSKSRSRTRSRSRSTSKSRSARRSKSKSSSVSRSRSRSRSRSRSRSPPPVSKRESKSRSRSKSPPKSPEEEGAVSS
